± gives the standard deviation of the averaged measurements. Most entries show no effect beyond the scatter of the controls.

Test in all cases: level (log10 ratio to DMSO vehicle control); higher = higher biomarker level / cell amount than vehicle control
Compound in assay [1]: O=C(O)C(F)(F)OC(F)(F)C(F)(F)OC(F)(F)C(F)(F)OC(F)(F)C(F)(F)C(F)(F)C(F)(F)F [Perfluoro-3,6,9-trioxatridecanoic acid]
To be noted: 2200 nM; in DMSO. The procedure:
(§1)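 BioMAP Diversity Plus panel of 12 human primary cell co-culture systems (3C, 4H, LPS, SAg, BT, BF4T, BE3C, CASM3C, HDF3CGF, KF3CT, MyoF, Mphg). Compounds were added 1 h before stimulation and left for 24 h (MyoF 48 h; BT 72 h for soluble read-outs or 6 d for IgG). Biomarkers were read by ELISA, cytotoxicity by SRB, PBMC viability and proliferation by Alamar Blue. Each well value was divided by the mean of 8 DMSO control wells on the same plate and log10 transformed; duplicate blinded samples were tested at 4 concentrations.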

Compound in assay [2]: OCC(F)(F)OC(F)(F)C(F)(F)OC(F)(F)C(F)(F)OC(F)(F)CO [1H,1H,11H,11H-Perfluorotetraethylene glycol]
The conditions noted are these: 2200 nM; in DMSO. On the procedure:
as §1

Compound in assay [3]: O=C(CC(=O)C(F)(F)C(F)(F)C(F)(F)F)c1cccs1 [(Perfluorobutyryl)-2-thenoylmethane]
To be noted: 2200 nM; in DMSO. On the procedure:
as §1

Compound in assay [4]: CCOC(=O)CC(=O)C(F)(F)C(F)(F)F [Ethyl pentafluoropropionyl acetate]
The conditions noted are these: 2200 nM; in DMSO. On the procedure:
as §1

Compound in assay [5]: O=C(O)CCC(F)(C(F)(F)F)C(F)(F)F [4,4-bis(Trifluoromethyl)-4-fluoropropanoic acid]
The conditions noted are these: 2200 nM; in DMSO. On the procedure: as §1

Compound in assay [6]: O=C(O)C(F)(F)C(F)(F)C(F)(F)C(F)(F)C(F)(F)C(F)(F)C(F)(F)F [Perfluorooctanoic acid]
To be noted: 2200 nM; in DMSO. The procedure: as §1

Compound in assay [7]: N=C(N)C(F)(F)C(F)(F)C(F)(F)C(F)(F)C(F)(F)C(F)(F)C(F)(F)F [Perfluorooctanamidine]
To be noted: in DMSO. On the procedure:
as §1

Compound in assay [8]: C=CC(=O)OCC(F)(F)C(F)(F)C(F)(F)C(F)(F)C(F)(F)C(F)(F)C(F)(F)C(F)F [1H,1H,9H-Perfluorononyl acrylate]
To be noted: 2200 nM; in DMSO. The procedure:
as §1

Compound in assay [9]: O=C(O)C(F)(F)C(F)(F)C(F)(F)C(F)(F)C(F)(F)C(F)(F)C(F)(F)C(F)(F)F [Perfluorononanoic acid]
To be noted: 2200 nM; in DMSO. The procedure: as §1

Compound in assay [10]: OCC(F)(F)C(F)(F)C(F)(F)C(F)(F)C(F)(F)C(F)(F)C(F)(F)C(F)(F)CO [1H,1H,10H,10H-Perfluorodecane-1,10-diol]
The conditions noted are these: 2200 nM; in DMSO. On the procedure:
as §1

Compound in assay [11]: O=C(O)C(F)(F)C(F)(F)C(F)(F)C(F)(F)C(F)(F)C(F)(F)C(F)(F)F [Ammonium perfluorooctanoate]
The conditions noted are these: 2200 nM; in DMSO. The procedure: as §1

Compound in assay [12]: O=C(O)C(F)(F)OC(F)(F)C(F)(F)OC(F)(F)F [Perfluoro-3,6-dioxaheptanoic acid]
To be noted: 2200 nM; in DMSO. On the procedure:
as §1

Compound in assay [13]: FC(F)(F)C(F)(F)C(F)(F)C(F)(F)C(F)(F)C(F)(F)C(F)(F)C(F)(F)CCS [2-(Perfluorooctyl)ethanthiol]
To be noted: in DMSO. The procedure:
as §1

Compound in assay [14]: O=C(O)C(F)(F)C(F)(F)C(F)(F)C(F)(F)C(F)(F)C(F)(F)C(F)(F)C(F)(F)C(F)(F)F [Perfluorodecanoic acid]
The conditions noted are these: in DMSO. On the procedure: as §1

For the test system KF3CT:CXCL10/IP-10, the “level (log10)” value in assay [1] was 0.0285 ± 0.037; in assay [2] it was 0.0065 ± 0.0064; in assay [3], -0.0085 ± 0.005; in [4] it was 0.0045 ± 0.00071; in assay [5], -0.004 ± 0.0057; in assay [6], -0.0065 ± 0.0021. Also, the “level (log10)” value in assay [7] (2200 nM) is 0.0165 ± 0.026; in [7] (6700 nM) it was 0.012 ± 0.042; in [7] (20000 nM), 0.0025 ± 0.04; in assay [7] (60000 nM), 0.04; in [8] it was -0.0015 ± 0.013; in assay [9], -0.028 ± 0.018. The “level (log10)” value was 0.006 ± 0.017 in [10]; 0.0025 ± 0.0092 in assay [11]; 0.004 ± 0.0085 in assay [12]; -0.006 ± 0.018 in assay [13] (740 nM); -0.0115 ± 0.0092 in assay [13] (2200 nM); -0.008 ± 0.0042 in [14] (2200 nM). The entries for the “level (log10)” value in assay [14] (6700 nM) and in assay [14] (20000 nM) were -0.044 ± 0.017 and -0.134 ± 0.028, respectively.
Turning to HDF3CGF:CD54/ICAM-1, the “level (log10)” value in assay [1] was -0.009 ± 0.0014; in assay [2] it was 0.0115 ± 0.0078; in assay [3] it was -0.022 ± 0.013; in assay [4], -0.0195 ± 0.013; in [5] it was 0.005 ± 0.0099; in assay [6] it was 0.0095 ± 0.033. In addition, the “level (log10)” value in assay [7] (2200 nM) is -0.021 ± 0.0042; in [7] (6700 nM), -0.0235 ± 0.0064; in assay [7] (20000 nM), -0.014 ± 0.013; in assay [7] (60000 nM), -0.072; in assay [8] it was -0.0125 ± 0.0092; in [9], 0.0085 ± 0.0092. Moreover, the “level (log10)” value in [10] is -0.0065 ± 0.016; in assay [11], -0.0015 ± 0.016; in assay [12], 0 ± 0.0057; in [13] (740 nM), -0.0085 ± 0.00071; in assay [13] (2200 nM), -0.0145 ± 0.012; in assay [14] (2200 nM), -0.0155 ± 0.021. In addition, the “level (log10)” value in assay [14] (6700 nM) was -0.0485 ± 0.0092; in [14] (20000 nM), -0.071.
Turning to BT:PBMC Cytotoxicity, the “level (log10)” value in assay [1] was 0.034 ± 0.038; in assay [2] it was -0.005 ± 0.021; in [3], 0.028 ± 0.02; in assay [4] it was -0.0145 ± 0.035; in assay [5] it was 0.0175 ± 0.005; in [6], 0.031 ± 0.013. Besides, the “level (log10)” value in [7] (2200 nM) is 0.008 ± 0.028; in assay [7] (6700 nM), 0.005; in assay [7] (20000 nM), 0 ± 0.031; in assay [7] (60000 nM) it was 0.006; in [8], -0.022 ± 0.023; in assay [9], 0.0025 ± 0.023. Moreover, the “level (log10)” value in assay [10] is 0.0015 ± 0.037; in assay [11], -0.009 ± 0.067; in assay [12], -0.004 ± 0.025; in [13] (740 nM), 0.026 ± 0.021; in assay [13] (2200 nM) it was 0.0265 ± 0.005; in assay [14] (2200 nM) it was 0.034 ± 0.0071. For the same test system, the “level (log10)” value in [14] (6700 nM) is 0.0195 ± 0.023; in assay [14] (20000 nM), 0.045 ± 0.045.
With BE3C:tPA, the “level (log10)” value is 0.043 ± 0.054 in assay [1]; 0.0145 ± 0.061 in [2]; -0.031 ± 0.0085 in assay [3]; 0.008 ± 0.085 in [4]; 0.013 ± 0.0071 in assay [5]; -0.0035 ± 0.073 in [6]. The “level (log10)” value in assay [7] (2200 nM) is 0.0275 ± 0.035; in [7] (6700 nM), 0 ± 0.0028; in [7] (20000 nM) it was -0.006 ± 0.0014; in assay [7] (60000 nM), 0.019; in [8], -0.001 ± 0.0085; in [9], 0.02 ± 0.035. The “level (log10)” value is 0.02 ± 0.017 in assay [10]; -0.0165 ± 0.036 in [11]; -0.0305 ± 0.029 in assay [12]; 0 ± 0.018 in [13] (740 nM); 0.0015 ± 0.0021 in assay [13] (2200 nM); 0.049 ± 0.03 in assay [14] (2200 nM). The results for the “level (log10)” value in assay [14] (6700 nM) and in [14] (20000 nM) were 0.0215 ± 0.026 and -0.546 ± 0.0085, respectively.

These data come from the supplement of paper PMC10331698.
